No constants are given. Whether binding was seen depends on the method and setting. Binding seen in cells or lysates may run through a third protein. Some binding calls cover weakened binding; strength is not graded here.
Columns and labels:
[1] = molecular target: dual specificity tyrosine-phosphorylation-regulated kinase 1A (mouse (endogenous in wt mouse brain)) (UniProt Q61214); experiment: co-IP; endogenous proteins; RIPA lysate of fresh half brains of 3-month-old wt male mice; 1 ml extract with 2 µg antibody (anti-DYRK1A or anti-SYN1) at 4°C for 1 h, protein G agarose beads 30 min, washed three times with bead buffer; western blot
[2] = molecular target: synapsin 1 (mouse (endogenous in wt mouse brain)) (UniProt O88935); experiment: as above

Row | Substance | binding [1] | binding [2]
1 | Calmodulin-dependent kinase 2A (from UniProt P11798 1-478) (enzyme) | binds | 
2 | dual specificity tyrosine-phosphorylation-regulated kinase 1A (from UniProt Q61214 1-763) (enzyme) |  | binds
3 | synapsin 1 (from UniProt O88935 1-706) | binds | 
